From patent US7109360B1, “16-hydroxyestratrienes as selectively active estrogens” (priority 1999, dated 2006)
At least one compound was matched to its structure with a doubt left.

System: estrogen receptor preparations of rat prostates
Test: Competitive 3H-estradiol binding to estrogen receptor of rat prostate cytosol
Details: Table 2; estradiol = 100

C#C[C@]1(O)CC[C@H]2[C@@H]3CCc4cc(O)ccc4[C@H]3CC[C@@]21C [Ethinylestradiol]
Rat prost. ER (RBA): 35
